From patent US20260345654A1, “2,8-DIHYDROXYQUINOLINE GLUCURONIDE DERIVATIVES WITH ENHANCED PROPERTIES FOR USE AS ANTICANCER, ANTIVIRAL, ANTIMICROBIAL, AND OTHER THERAPEUTIC APPLICATIONS” (priority 2023, published 2026)

System: beta-glucosidase
Experiment: Requirement of beta-glucosidase for activity / cleavage

## O=C(O)[C@H]1O[C@@H](Oc2ccc3cccc(O)c3n2)[C@H](O)[C@@H](O)[C@@H]1O [G2-8HQ, 8-Hydroxy-2-quinolinyl beta-D-glucopyranosiduronic acid]
  Require Beta glucosidase: beta-glucosidase is not required and active without beta-glucosidase and No
